The record followed here is paper PMC3989768, “Activation of the γ-Tubulin Complex by the Mto1/2 Complex” (Current Biology, 2014).

No constants are given. Whether binding was seen depends on the method and setting. For part of these data: In cells and extracts the contact can be indirect. Some binding calls cover weakened binding; strength is not graded here. For part of these data: Tags and fused reporters may be left off the sequences shown.

The target in test [1] is Mto2 (two differently tagged copies: Mto2-13myc and 6His-FLAG-GFP-Mto2) (Schizosaccharomyces pombe) (UniProt Q9USP7). As to the kind of experiment: co-IP; 6His-FLAG-GFP-Mto2 precipitated from mto1+ and mto1Δ cell extracts; western blots probed with antibodies against GFP, Myc and Mto1.
For test [2], the target named is Mto2-SZZ (Schizosaccharomyces pombe) (UniProt Q9USP7). As to the kind of experiment: glycerol density-gradient centrifugation; cell lysates of mto1[9A1-bonsai]-GFP and mto1Δ cells; isokinetic glycerol gradient, 2.5 hr or 45 min; quantitative western blotting.
For test [3], the target named is T1, Mto1 (in the Mto1/2 complex isolated from cells) (Schizosaccharomyces pombe) (UniProt O94488).
T1 sequence: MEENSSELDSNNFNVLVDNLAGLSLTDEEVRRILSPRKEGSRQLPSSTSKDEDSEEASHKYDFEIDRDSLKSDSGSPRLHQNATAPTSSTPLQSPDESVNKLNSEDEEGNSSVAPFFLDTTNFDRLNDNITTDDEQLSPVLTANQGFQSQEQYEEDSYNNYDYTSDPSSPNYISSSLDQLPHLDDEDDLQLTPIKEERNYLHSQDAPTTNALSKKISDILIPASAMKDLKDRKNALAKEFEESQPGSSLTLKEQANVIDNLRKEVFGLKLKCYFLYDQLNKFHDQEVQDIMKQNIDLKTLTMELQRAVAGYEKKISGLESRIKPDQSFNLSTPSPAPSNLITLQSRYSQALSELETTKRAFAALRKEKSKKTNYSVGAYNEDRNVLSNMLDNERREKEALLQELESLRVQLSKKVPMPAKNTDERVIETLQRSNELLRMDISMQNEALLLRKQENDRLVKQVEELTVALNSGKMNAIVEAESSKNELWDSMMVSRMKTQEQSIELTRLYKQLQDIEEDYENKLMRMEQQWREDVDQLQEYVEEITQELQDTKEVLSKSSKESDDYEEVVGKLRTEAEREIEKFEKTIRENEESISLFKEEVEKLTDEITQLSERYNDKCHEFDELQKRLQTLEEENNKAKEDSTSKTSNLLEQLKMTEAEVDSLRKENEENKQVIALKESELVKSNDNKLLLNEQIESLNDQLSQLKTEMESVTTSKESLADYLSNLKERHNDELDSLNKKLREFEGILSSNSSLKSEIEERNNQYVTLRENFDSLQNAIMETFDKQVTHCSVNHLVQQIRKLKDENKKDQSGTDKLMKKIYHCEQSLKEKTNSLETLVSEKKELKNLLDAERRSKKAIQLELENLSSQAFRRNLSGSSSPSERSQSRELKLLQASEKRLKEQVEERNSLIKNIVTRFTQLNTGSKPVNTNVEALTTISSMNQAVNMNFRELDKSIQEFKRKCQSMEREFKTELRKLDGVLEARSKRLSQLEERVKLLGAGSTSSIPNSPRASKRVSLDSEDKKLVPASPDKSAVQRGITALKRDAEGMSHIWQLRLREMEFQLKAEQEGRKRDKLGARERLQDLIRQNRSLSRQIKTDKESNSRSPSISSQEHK
Briefly: co-IP; Mto1/2 complex isolated from cells by immunoprecipitation (Figure S3A).

B1: Mto2 (two differently tagged copies: Mto2-13myc and 6His-FLAG-GFP-Mto2) (protein, UniProt Q9USP7 1-397)
chain: MSEHNYQSDREVAEDPFLNYEASANQLSSNSRESTPRGSPWRAGMRSASLMTEPLEDSMYSDNNYLDNGVSFTKDENPLYSPSWPSLADANVNSMKSNNAIQEHKAAKFVSEKSLEKVSTADNNLVLQELENLRERLNQVELQLSERPSSYLGYHNNLSPYRSPNSYPSLLPSTHSPHSPAPLSTMQTALMRLRTYHPSPIILKPVEQAVNHAITLVNTSPSSVVDALCRSLAELCLGLVQEAIDASILSQQESSNSLDLVRHTPPLNYTSSVDSSPQRMASDSYGRPSLHLNDPFPSVDLQSNELSHHNVRTTLFSDDSRFHSKIHTHSTPPSQMYSAASHFRYRSDPSTRHVSNSTNKSSLHPSPTSLRVAHPIIPQRASPASQSFPSLQDTPSP
On to B1, for which, in test [1], the binding result is “binds”.

B2: Mto2-SZZ (protein, UniProt Q9USP7 1-397)
chain: MSEHNYQSDREVAEDPFLNYEASANQLSSNSRESTPRGSPWRAGMRSASLMTEPLEDSMYSDNNYLDNGVSFTKDENPLYSPSWPSLADANVNSMKSNNAIQEHKAAKFVSEKSLEKVSTADNNLVLQELENLRERLNQVELQLSERPSSYLGYHNNLSPYRSPNSYPSLLPSTHSPHSPAPLSTMQTALMRLRTYHPSPIILKPVEQAVNHAITLVNTSPSSVVDALCRSLAELCLGLVQEAIDASILSQQESSNSLDLVRHTPPLNYTSSVDSSPQRMASDSYGRPSLHLNDPFPSVDLQSNELSHHNVRTTLFSDDSRFHSKIHTHSTPPSQMYSAASHFRYRSDPSTRHVSNSTNKSSLHPSPTSLRVAHPIIPQRASPASQSFPSLQDTPSP
As for B2, the binding result in test [2] was “binds”.

B3: Mto2 (protein, UniProt Q9USP7 1-397)
chain: MSEHNYQSDREVAEDPFLNYEASANQLSSNSRESTPRGSPWRAGMRSASLMTEPLEDSMYSDNNYLDNGVSFTKDENPLYSPSWPSLADANVNSMKSNNAIQEHKAAKFVSEKSLEKVSTADNNLVLQELENLRERLNQVELQLSERPSSYLGYHNNLSPYRSPNSYPSLLPSTHSPHSPAPLSTMQTALMRLRTYHPSPIILKPVEQAVNHAITLVNTSPSSVVDALCRSLAELCLGLVQEAIDASILSQQESSNSLDLVRHTPPLNYTSSVDSSPQRMASDSYGRPSLHLNDPFPSVDLQSNELSHHNVRTTLFSDDSRFHSKIHTHSTPPSQMYSAASHFRYRSDPSTRHVSNSTNKSSLHPSPTSLRVAHPIIPQRASPASQSFPSLQDTPSP
As for B3, the binding entry in test [3] is listed as “binds”.
